# Experimental data: the supplement of paper PMC12009310
# Counter-ions that a name gives are not always drawn. ± gives the standard deviation of the averaged measurements. Some of the results follow. Part of the spread comes from offsets between plates or batches.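 The cells are a mouse kidney inner medullary collecting duct line, silenced either for the ciliary gene Rpgrip1l or with a non-targeting control siRNA.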
# Tested on: mIMCD3
# Test: robust z score of cell number vs plate controls; higher = more cells (less cytotoxic)
# Conditions: 10 µM; 48 h; siRNA: siScr
row,SMILES,robust z score of cell number
1,"Nc1nc2c(nc(Br)n2[C@@H]2O[C@@H]3COP(=O)(O)O[C@H]3[C@H]2O)c(=O)[nH]1 [8-Bromo-cGMP, sodium salt]",1.66 ± 4.6
2,c1ccc2oc(C3=NCCN3)cc2c1 [2-BFI hydrochloride],-6.11 ± 4.5
3,COc1ccccc1N1CCN(CCN2C(=O)c3ccccc3C(C)(C)C2=O)CC1 [ARC 239 dihydrochloride],-6.54 ± 5
4,COc1cc2ncnc(Nc3ccc(Oc4ccccc4)cc3)c2cc1OC,1.15 ± 5.6
5,O=c1[nH]ccc2c(S(=O)(=O)N3CCCNCC3)cccc12 [HA 1100 hydrochloride],1.31 ± 0.083
6,N[C@H](C(=O)O)c1ccc(O)c(C(=O)O)c1 [(S)-3-Carboxy-4-hydroxyphenylglycine],-0.85 ± 3.9
7,CCOC(=O)c1ccc(OC(=O)CCCCCNC(=N)N)cc1 [Gabexate mesylate],2.65 ± 3.5
8,O=C(CCCN1CCC(O)(c2ccc(Cl)cc2)CC1)c1ccc(F)cc1 [Haloperidol hydrochloride],-13.5 ± 1.1
9,CC1(CN2CCC(n3c(=O)[nH]c4ccccc43)CC2)OCc2ccccc2-n2cccc21 (stereo not drawn),-17.7 ± 0.19
10,Nc1ncnc2c1ncn2C1CCCO1 (stereo not drawn),-0.833 ± 3.2
11,Cc1cc(C)c(S(=O)(=O)Nc2cccc(C(F)(F)F)c2)c(C)c1,-43.9 ± 30
12,c1cc2c(cc1C1CCCCC1)c1c3n2CCNC3CCC1 (stereo not drawn) [Tetrindole mesylate],-42.2 ± 6.7
13,O=C1C(=O)N(Cc2ccc(Cl)c(Cl)c2)c2ccccc21 [Apoptosis Activator 2],-52.4 ± 29
14,O=C(NCCCCCCNC(=O)ON=C1CCCCC1)ON=C1CCCCC1,-3.38 ± 1.1
15,NCCNC(=O)c1ccc(Cl)cn1 [Lazabemide hydrochloride],-1.57 ± 1.6
16,CN(CC[C@@H](Oc1ccc(-c2ccccc2)cc1)c1ccc(F)cc1)CC(=O)O [ALX 5407 hydrochloride],-5.55 ± 3.8
17,COc1ccc2[nH]c(I)c(CCNC(C)=O)c2c1 [2-Iodomelatonin],1.27 ± 3.9
18,CC[N+](CC)(CC)CCOc1ccc(/C=C/c2ccccc2)cc1,-31.5 ± 5.9
19,CCOc1ccccc1OC(c1ccccc1)C1CNCCO1 (stereo not drawn) [Reboxetine mesylate],2.55 ± 1.6
20,CCOc1cc(CC(=O)N[C@@H](CC(C)C)c2ccccc2N2CCCCC2)ccc1C(=O)O [Repaglinide],-5.12 ± 3

row,SMILES,robust z score of cell number
1,NS(=O)(=O)c1cc2c(cc1Cl)NC(C1CC3C=CC1C3)NS2(=O)=O (stereo not drawn) [Cyclothiazide],0.403 ± 1.1
2,Nc1nc(-c2ccc(Cl)c(Cl)c2)c(-c2ccncc2)s1 [CGH 2466 dihydrochloride],-6.18 ± 1.2
3,O=C(O)Cn1c(C(=O)Nc2nc(-c3ccccc3Cl)cs2)cc2ccccc21,-30.7 ± 17
4,COc1ccc(CN2C(=O)C(=O)c3cc(OC(F)(F)F)ccc32)cc1,-28.3 ± 22
5,O=c1cc(-c2cccc3c2Sc2ccccc2S3)oc(N2CCOCC2)c1,-12.8 ± 11
6,OC(c1ccccc1)C1CCN(CCc2ccccc2)CC1 (stereo not drawn),-11.4 ± 0.38
7,CC(C)(C)c1ccc(S(=O)(=O)/C=C/C#N)cc1,-27.4 ± 22
8,COc1cc2ncnc(Nc3ccc(F)c(Cl)c3)c2cc1OCCCN1CCOCC1 [Iressa],-14.4 ± 13
9,CNCCC(Oc1ccc(C(F)(F)F)cc1)c1ccccc1 (stereo not drawn) [Fluoxetine hydrochloride],-24.8 ± 13
10,CC(C)c1ccccc1S(=O)(=O)c1cc(N)c2ncccc2c1[N+](=O)[O-],-43.5 ± 30
11,Fc1ccc([C@@H]2CCNC[C@H]2COc2ccc3c(c2)OCO3)cc1 [Paroxetine maleate],-49.5 ± 35
12,CC(=O)N(OCc1ccccc1)[C@H]1c2cc(C#N)ccc2OC(C)(C)[C@H]1O,-1.05 ± 4.1
13,CCN(CC)CCOCCOC(=O)C1(c2ccccc2)CCCC1 [Carbetapentane citrate],-64.9 ± 40
14,"Cc1ccc(OCC(O)C(C)NC(C)C)c2c1CCC2 (stereo not drawn) [ICI-118,551 hydrochloride]",-1.81 ± 1.1
15,OC[C@H]1O[C@@H](n2cnc3c(N[C@H]4CCC[C@@H]4O)ncnc32)[C@H](O)[C@@H]1O,1.66 ± 2.7
16,O=[N+]([O-])c1cc(Cl)ccc1S(=O)(=O)N1CCN(Cc2ccccc2)CC1,-2.08 ± 1.3
17,O=C1OC(OC(=O)c2cccnc2Nc2cccc(C(F)(F)F)c2)c2ccccc21 (stereo not drawn) [Talniflumate],-74.8 ± 73
18,CC1CCN(CC[C@H]2CCCN2S(=O)(=O)c2cccc(O)c2)CC1,-2.82 ± 2.2
19,CC(C)(C)NC[C@H](O)COc1nsnc1N1CCOCC1 [(S)-Timolol maleate],1.06 ± 5.3

# Tested on: mIMCD3
# Test: robust z score of cilia incidence (% cells with single cilium) vs plate controls; higher = more ciliated cells
# Conditions: 10 µM; 48 h; siRNA: siScr
row,SMILES,robust z score of cilia incidence
1,"Nc1nc2c(nc(Br)n2[C@@H]2O[C@@H]3COP(=O)(O)O[C@H]3[C@H]2O)c(=O)[nH]1 [8-Bromo-cGMP, sodium salt]",1.54 ± 2.2
2,c1ccc2oc(C3=NCCN3)cc2c1 [2-BFI hydrochloride],1.83 ± 1.4
3,COc1ccccc1N1CCN(CCN2C(=O)c3ccccc3C(C)(C)C2=O)CC1 [ARC 239 dihydrochloride],-2.55 ± 4.7
4,COc1cc2ncnc(Nc3ccc(Oc4ccccc4)cc3)c2cc1OC,-0.0244 ± 0.9
5,O=c1[nH]ccc2c(S(=O)(=O)N3CCCNCC3)cccc12 [HA 1100 hydrochloride],6.32 ± 3.9
6,N[C@H](C(=O)O)c1ccc(O)c(C(=O)O)c1 [(S)-3-Carboxy-4-hydroxyphenylglycine],2.14 ± 3.5
7,CCOC(=O)c1ccc(OC(=O)CCCCCNC(=N)N)cc1 [Gabexate mesylate],0.574 ± 1.8
8,O=C(CCCN1CCC(O)(c2ccc(Cl)cc2)CC1)c1ccc(F)cc1 [Haloperidol hydrochloride],-18 ± 9.8
9,CC1(CN2CCC(n3c(=O)[nH]c4ccccc43)CC2)OCc2ccccc2-n2cccc21 (stereo not drawn),-20.6 ± 21
10,Nc1ncnc2c1ncn2C1CCCO1 (stereo not drawn),-1.27 ± 1.3
11,Cc1cc(C)c(S(=O)(=O)Nc2cccc(C(F)(F)F)c2)c(C)c1,-121 ± 62
12,c1cc2c(cc1C1CCCCC1)c1c3n2CCNC3CCC1 (stereo not drawn) [Tetrindole mesylate],-46.9 ± 7.5
13,O=C1C(=O)N(Cc2ccc(Cl)c(Cl)c2)c2ccccc21 [Apoptosis Activator 2],-29 ± 12
14,O=C(NCCCCCCNC(=O)ON=C1CCCCC1)ON=C1CCCCC1,-9.68 ± 6.3
15,NCCNC(=O)c1ccc(Cl)cn1 [Lazabemide hydrochloride],1.36 ± 1.6
16,CN(CC[C@@H](Oc1ccc(-c2ccccc2)cc1)c1ccc(F)cc1)CC(=O)O [ALX 5407 hydrochloride],-1.1 ± 3.1
17,COc1ccc2[nH]c(I)c(CCNC(C)=O)c2c1 [2-Iodomelatonin],2.86 ± 0.84
18,CC[N+](CC)(CC)CCOc1ccc(/C=C/c2ccccc2)cc1,-12 ± 11
19,CCOc1ccccc1OC(c1ccccc1)C1CNCCO1 (stereo not drawn) [Reboxetine mesylate],-1.8 ± 1.1
20,CCOc1cc(CC(=O)N[C@@H](CC(C)C)c2ccccc2N2CCCCC2)ccc1C(=O)O [Repaglinide],7.87 ± 1.5

row,SMILES,robust z score of cilia incidence
1,NS(=O)(=O)c1cc2c(cc1Cl)NC(C1CC3C=CC1C3)NS2(=O)=O (stereo not drawn) [Cyclothiazide],-0.352 ± 2.5
2,Nc1nc(-c2ccc(Cl)c(Cl)c2)c(-c2ccncc2)s1 [CGH 2466 dihydrochloride],-6.21 ± 5.6
3,O=C(O)Cn1c(C(=O)Nc2nc(-c3ccccc3Cl)cs2)cc2ccccc21,-5.84 ± 3.9
4,COc1ccc(CN2C(=O)C(=O)c3cc(OC(F)(F)F)ccc32)cc1,-18 ± 11
5,O=c1cc(-c2cccc3c2Sc2ccccc2S3)oc(N2CCOCC2)c1,-17.8 ± 4.4
6,OC(c1ccccc1)C1CCN(CCc2ccccc2)CC1 (stereo not drawn),-20.4 ± 1.6
7,CC(C)(C)c1ccc(S(=O)(=O)/C=C/C#N)cc1,-9.89 ± 3.5
8,COc1cc2ncnc(Nc3ccc(F)c(Cl)c3)c2cc1OCCCN1CCOCC1 [Iressa],-24.8 ± 24
9,CNCCC(Oc1ccc(C(F)(F)F)cc1)c1ccccc1 (stereo not drawn) [Fluoxetine hydrochloride],-31.9 ± 9.2
10,CC(C)c1ccccc1S(=O)(=O)c1cc(N)c2ncccc2c1[N+](=O)[O-],-8.28 ± 2.7
11,Fc1ccc([C@@H]2CCNC[C@H]2COc2ccc3c(c2)OCO3)cc1 [Paroxetine maleate],-18.9 ± 0.32
12,CC(=O)N(OCc1ccccc1)[C@H]1c2cc(C#N)ccc2OC(C)(C)[C@H]1O,-0.766 ± 0.75
13,CCN(CC)CCOCCOC(=O)C1(c2ccccc2)CCCC1 [Carbetapentane citrate],-39.2 ± 2.9
14,"Cc1ccc(OCC(O)C(C)NC(C)C)c2c1CCC2 (stereo not drawn) [ICI-118,551 hydrochloride]",-5.73 ± 0.34
15,OC[C@H]1O[C@@H](n2cnc3c(N[C@H]4CCC[C@@H]4O)ncnc32)[C@H](O)[C@@H]1O,-0.987 ± 0.33
16,O=[N+]([O-])c1cc(Cl)ccc1S(=O)(=O)N1CCN(Cc2ccccc2)CC1,-0.665 ± 2.5
17,O=C1OC(OC(=O)c2cccnc2Nc2cccc(C(F)(F)F)c2)c2ccccc21 (stereo not drawn) [Talniflumate],-8.31 ± 7.4
18,CC1CCN(CC[C@H]2CCCN2S(=O)(=O)c2cccc(O)c2)CC1,1.63 ± 3.3
19,CC(C)(C)NC[C@H](O)COc1nsnc1N1CCOCC1 [(S)-Timolol maleate],1.46 ± 2.3

# Fetched by structure from the list above, four records:
row,SMILES,robust z score of cilia incidence
14,O=C(NCCCCCCNC(=O)ON=C1CCCCC1)ON=C1CCCCC1,-9.68 ± 6.3
19,CC(C)(C)NC[C@H](O)COc1nsnc1N1CCOCC1 [(S)-Timolol maleate],1.46 ± 2.3
10,Nc1ncnc2c1ncn2C1CCCO1 (stereo not drawn),-1.27 ± 1.3
17,COc1ccc2[nH]c(I)c(CCNC(C)=O)c2c1 [2-Iodomelatonin],2.86 ± 0.84
